From paper doi:10.1101/2025.07.25.666731
Positions count from the first letter of the chain named. Read-outs that look alike come from different tables or passages of the source. Results are given in words; binding and its absence hold for the method and conditions named. For some of these results: Binding seen in cells or lysates may run through a third protein. Some binding calls cover weakened binding; strength is not graded here. Sequences can lack the tags named with a protein. One block for each molecule: values may come before it.

Amino acid sequences for entries named in this document (tags omitted).
UniProt Q13257: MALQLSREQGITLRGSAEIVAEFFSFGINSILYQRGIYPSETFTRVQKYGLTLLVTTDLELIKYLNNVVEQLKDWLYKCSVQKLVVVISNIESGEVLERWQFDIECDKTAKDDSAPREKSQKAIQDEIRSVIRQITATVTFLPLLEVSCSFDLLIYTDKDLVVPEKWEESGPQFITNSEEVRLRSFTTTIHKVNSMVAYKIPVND
UniProt O43683: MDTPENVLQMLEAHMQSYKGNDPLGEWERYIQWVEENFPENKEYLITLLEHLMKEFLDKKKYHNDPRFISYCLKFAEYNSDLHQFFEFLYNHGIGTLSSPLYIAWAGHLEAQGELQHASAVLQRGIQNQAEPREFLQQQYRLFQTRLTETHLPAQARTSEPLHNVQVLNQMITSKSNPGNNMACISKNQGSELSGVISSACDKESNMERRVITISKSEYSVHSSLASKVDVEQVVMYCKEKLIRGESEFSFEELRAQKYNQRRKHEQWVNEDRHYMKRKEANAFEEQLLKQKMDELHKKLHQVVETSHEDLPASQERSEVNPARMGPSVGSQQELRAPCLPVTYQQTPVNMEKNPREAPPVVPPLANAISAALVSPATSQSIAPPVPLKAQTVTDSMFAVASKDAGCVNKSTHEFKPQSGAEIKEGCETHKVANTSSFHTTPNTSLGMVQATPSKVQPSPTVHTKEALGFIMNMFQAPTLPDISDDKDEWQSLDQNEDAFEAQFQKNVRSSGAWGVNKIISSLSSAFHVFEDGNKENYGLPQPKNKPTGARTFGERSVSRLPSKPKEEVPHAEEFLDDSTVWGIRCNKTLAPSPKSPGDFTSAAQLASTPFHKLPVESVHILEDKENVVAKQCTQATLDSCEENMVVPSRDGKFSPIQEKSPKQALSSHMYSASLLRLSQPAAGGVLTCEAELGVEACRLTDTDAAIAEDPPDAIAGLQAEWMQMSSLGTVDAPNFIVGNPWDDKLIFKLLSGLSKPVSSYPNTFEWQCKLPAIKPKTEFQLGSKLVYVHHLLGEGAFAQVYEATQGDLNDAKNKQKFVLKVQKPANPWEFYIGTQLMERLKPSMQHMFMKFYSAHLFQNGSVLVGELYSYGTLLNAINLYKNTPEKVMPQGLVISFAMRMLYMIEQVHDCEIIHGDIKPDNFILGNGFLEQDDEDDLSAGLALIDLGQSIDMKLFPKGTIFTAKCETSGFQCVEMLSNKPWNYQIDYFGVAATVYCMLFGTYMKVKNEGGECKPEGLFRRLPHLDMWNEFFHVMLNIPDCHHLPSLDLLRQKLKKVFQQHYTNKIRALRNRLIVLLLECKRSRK

Experiments:
[1] = biological target: T1, GFP-hSpindly T552A (human) (UniProt Q96EA4); assay: co-IP
T1 sequence: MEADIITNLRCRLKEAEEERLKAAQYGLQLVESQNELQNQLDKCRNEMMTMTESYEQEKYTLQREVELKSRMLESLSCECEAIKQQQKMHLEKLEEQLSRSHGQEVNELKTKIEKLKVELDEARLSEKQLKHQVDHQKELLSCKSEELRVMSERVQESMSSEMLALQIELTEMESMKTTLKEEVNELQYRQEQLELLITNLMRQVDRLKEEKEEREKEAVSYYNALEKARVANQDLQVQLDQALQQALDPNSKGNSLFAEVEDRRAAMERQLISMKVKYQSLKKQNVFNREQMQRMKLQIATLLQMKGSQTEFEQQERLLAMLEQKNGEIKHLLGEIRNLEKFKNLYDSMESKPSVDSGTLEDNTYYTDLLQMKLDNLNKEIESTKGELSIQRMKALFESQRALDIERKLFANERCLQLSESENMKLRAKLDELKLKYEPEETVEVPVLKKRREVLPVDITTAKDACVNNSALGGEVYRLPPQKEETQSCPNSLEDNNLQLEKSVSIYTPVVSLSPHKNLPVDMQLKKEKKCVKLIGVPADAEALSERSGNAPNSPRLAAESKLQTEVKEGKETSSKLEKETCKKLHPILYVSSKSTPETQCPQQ

GFP-hSpindly (human) [2] = biological target: T2, GFP-hSpindly (human) (UniProt Q96EA4); assay: co-IP
T2 sequence: T1 sequence with A552T

GFP-hSpindly (human) [3] = biological target: T2, GFP-hSpindly (human); assay: co-IP; remark: listed apart in the source
[4] = biological target: T3, GFP-hSpindly (human), Q96EA4; assay: Number and Brightness; conditions: remark: other sources report otherwise
T3 chain: T1 sequence with A552T

[5] = biological target: Mad2 (human (endogenous in RPE-1)) (UniProt Q13257); assay: co-IP
[6] = biological target: T4, Mad1 (human (endogenous in RPE-1)) (UniProt Q9Y6D9); assay: co-IP
T4 sequence: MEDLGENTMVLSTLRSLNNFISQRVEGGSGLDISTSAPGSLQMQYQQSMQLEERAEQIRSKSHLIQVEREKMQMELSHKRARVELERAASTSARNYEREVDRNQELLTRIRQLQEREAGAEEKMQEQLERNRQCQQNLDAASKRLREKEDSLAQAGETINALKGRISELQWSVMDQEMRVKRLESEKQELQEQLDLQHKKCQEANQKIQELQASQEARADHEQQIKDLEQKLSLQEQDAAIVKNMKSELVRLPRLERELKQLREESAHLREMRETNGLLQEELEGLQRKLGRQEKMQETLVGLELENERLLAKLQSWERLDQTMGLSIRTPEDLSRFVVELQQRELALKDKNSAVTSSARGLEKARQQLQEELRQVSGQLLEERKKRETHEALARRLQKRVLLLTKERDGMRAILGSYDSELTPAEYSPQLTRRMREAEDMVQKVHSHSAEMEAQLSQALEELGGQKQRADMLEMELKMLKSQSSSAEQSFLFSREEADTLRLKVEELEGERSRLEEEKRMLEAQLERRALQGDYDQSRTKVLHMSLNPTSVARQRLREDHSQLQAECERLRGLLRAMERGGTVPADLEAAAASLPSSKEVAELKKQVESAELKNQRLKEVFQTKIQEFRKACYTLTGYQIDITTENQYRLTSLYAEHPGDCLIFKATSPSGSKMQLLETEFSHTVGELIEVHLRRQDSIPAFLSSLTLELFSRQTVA

binding [4]: binds
B1: GFP-hSpindly, Q96EA4 1-605 (protein)
chain: T1 sequence with A552T

binding (GFP-hSpindly (human) [3]): binds
B4: Mad1 (protein, UniProt Q9Y6D9 1-718)
chain: T4 sequence

More lines, now with the values behind:

Molecule: Bub1 (from UniProt O43683 1-1085)
binding [1]: binds
binding (GFP-hSpindly (human) [2]): binds
binding (GFP-hSpindly (human) [3]): binds

B2: GFP-hSpindly (protein, UniProt Q96EA4 1-605)
chain: T1 sequence with A552T
binding [5]: binds
binding [6]: binds

B3: Aurora A kinase (protein, UniProt O14965 1-403)
chain: MDRSKENCISGPVKATAPVGGPKRVLVTQQFPCQNPLPVNSGQAQRVLCPSNSSQRIPLQAQKLVSSHKPVQNQKQKQLQATSVPHPVSRPLNNTQKSKQPLPSAPENNPEEELASKQKNEESKKRQWALEDFEIGRPLGKGKFGNVYLAREKQSKFILALKVLFKAQLEKAGVEHQLRREVEIQSHLRHPNILRLYGYFHDATRVYLILEYAPLGTVYRELQKLSKFDEQRTATYITELANALSYCHSKRVIHRDIKPENLLLGSAGELKIADFGWSVHAPSSRRTTLCGTLDYLPPEMIEGRMHDEKVDLWSLGVLCYEFLVGKPPFEANTYQETYKRISRVEFTFPDFVTEGARDLISRLLKHNPSQRPMLREVLEHPWITANSSKPSNCQNKESASKQS
binding [1]: binds
binding (GFP-hSpindly (human) [2]): binds
binding (GFP-hSpindly (human) [3]): binds
